Results are given in words; binding and its absence hold for the method and conditions named. In cells and extracts the contact can be indirect. Here binding means that the protein was enriched with, or labelled near, the bait; the list need not be complete. Tags and fused reporters may be left off the sequences shown.
B1: ribosomal protein L18 (protein, UniProt P0CX49 1-186)
chain: MGIDHTSKQHKRSGHRTAPKSDNVYLKLLVKLYTFLARRTDAPFNKVVLKALFLSKINRPPVSVSRIARALKQEGAANKTVVVVGTVTDDARIFEFPKTTVAALRFTAGARAKIVKAGGECITLDQLAVRAPKGQNTLILRGPRNSREAVRHFGMGPHKGKAPRILSTGRKFERARGRRRSKGFKV
B2: Nop15 (protein, UniProt P53927 1-220)
chain: MVKSTSKTSTKETVTKQPTEEKPIQEKEELALETSSSSSDEEDEKDEDEIEGLAASDDEQSGTHKIKRLNPKKQANEKKSKDKKTLEEYSGIIYVSRLPHGFHEKELSKYFAQFGDLKEVRLARNKKTGNSRHYGFLEFVNKEDAMIAQESMNNYLLMGHLLQVRVLPKGAKIEKLYKYKKRVLVEKGITKPVKQLKDNMKQKHEERIKKLAKSGIEFKW
B3: Cic1 (protein, UniProt P38779 1-376)
chain: MAKKSNSKKSTPVSTPSKEKKKVIEKKSSTAIPRERVIKAVNELIKFTSKPQDENNEEGNNGKKNLLEDDEEELKKDLQLIVVNNKSFTGTSKSFKLKLLNVKHSFYKPWKEASATAVKDFKVLLILKDSDIKKVSEDDLFDQLDSEGIKVDEIICGKDLKTVYKAYEARNAFISQFSLILADDSIVTSLPKLMGGKAYNKVETTPISIRTHANKEFSLTTLTNNIKKVYMNQLPVKLPRGTTLNVHLGNLEWLRPEEFVDNVELISEQLIKAYQIRSIFIKTNRSPVLPLYYNQDVLDELEAKKDKIEETHEDDMVTIDGVQVHLSTFNKGLMEIANPSELGSIFSKQINNAKKRSSSELEKESSESEAVKKAKS
B4: Brx1 (protein, UniProt Q08235 1-291)
chain: MSSIYKALAGKSKDNKSEKKQGNVKQFMNKQRTLLISSRGVNYRHRHLIQDLSGLLPHSRKEPKLDTKKDLQQLNEIAELYNCNNVLFFEARKHQDLYLWLSKPPNGPTIKFYIQNLHTMDELNFTGNCLKGSRPVLSFDQRFESSPHYQLIKELLVHNFGVPPNARKSKPFIDHVMSFSIVDDKIWVRTYEISHSTKNKEEYEDGEEDISLVEIGPRFVMTVILILEGSFGGPKIYENKQYVSPNVVRAQIKQQAAEEAKSRAEAAVERKIKRRENVLAADPLSNDALFK
B5: Rrp1 (protein, UniProt P35178 1-278)
chain: METSNFVKQLSSNNRKTRVNALEALKKYLTAKQFKENKQIEFNKLWKGLYYAMWFSDRPRPQQRLANELGELHGLYFDPKDNSTADELTTNDKAFIKFSRGFWKVMCFEWFNIDRYRLDKYLLLIRRVLFSQLKYLQSRNWDKKLVDEYIKKVLRWLPLSGSPKVYTGIPIHIVDILLDEWERLLKDGDEDDEDEENKEEEMRKIAESAKKTPLADVIAIFQDIVADYNNSKVLREKIKEDLFSDTRLVSWDILEGETQHNDSSNESEEEEEEEWKGF
B6: Ebp2, P36049 1-427 (protein)
chain: MAKGFKLKELLSHQKEIEKAEKLENDLKKKKSQELKKEEPTIVTASNLKKLEKKEKKADVKKEVAADTEEYQSQALSKKEKRKLKKELKKMQEQDATEAQKHMSGDEDESGDDREEEEEEEEEEEGRLDLEKLAKSDSESEDDSESENDSEEDEDVVAKEESEEKEEQEEEQDVPLSDVEFDSDADVVPHHKLTVNNTKAMKHALERVQLPWKKHSFQEHQSVTSETNTDEHIKDIYDDTERELAFYKQSLDAVLVARDELKRLKVPFKRPLDYFAEMVKSDEHMDKIKGKLIEEASDKKAREEARRQRQLKKFGKQVQNATLQKRQLEKRETLEKIKSLKNKRKHNEIDHSEFNVGVEEEVEGKRFDRGRPNGKRAAKNAKYGQGGMKRFKRKNDATSSADVSGFSSRKMKGKTNRPGKSRRARRF

By UniProt entry, the sequences of proteins in these tests, tags left out. Where a name states a change or a piece, a line headed by the entry shows the natural chain unless it says otherwise.
UniProt Q03532: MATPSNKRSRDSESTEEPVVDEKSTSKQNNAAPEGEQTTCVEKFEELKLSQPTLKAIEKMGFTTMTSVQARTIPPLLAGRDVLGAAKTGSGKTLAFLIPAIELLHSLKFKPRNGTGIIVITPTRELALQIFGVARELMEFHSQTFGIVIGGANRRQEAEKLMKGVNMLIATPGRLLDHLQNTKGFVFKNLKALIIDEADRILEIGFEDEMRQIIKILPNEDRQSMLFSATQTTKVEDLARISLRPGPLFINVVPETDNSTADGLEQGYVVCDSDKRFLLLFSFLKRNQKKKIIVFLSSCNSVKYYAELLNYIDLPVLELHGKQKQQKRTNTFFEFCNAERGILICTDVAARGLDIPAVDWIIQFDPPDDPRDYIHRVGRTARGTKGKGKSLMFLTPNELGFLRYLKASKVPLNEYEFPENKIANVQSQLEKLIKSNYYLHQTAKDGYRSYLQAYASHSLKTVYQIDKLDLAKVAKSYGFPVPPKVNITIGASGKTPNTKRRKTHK
UniProt P38061: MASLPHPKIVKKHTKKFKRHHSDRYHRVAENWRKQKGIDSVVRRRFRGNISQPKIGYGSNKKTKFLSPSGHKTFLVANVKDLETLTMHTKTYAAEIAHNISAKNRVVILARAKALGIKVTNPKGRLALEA
UniProt Q12522: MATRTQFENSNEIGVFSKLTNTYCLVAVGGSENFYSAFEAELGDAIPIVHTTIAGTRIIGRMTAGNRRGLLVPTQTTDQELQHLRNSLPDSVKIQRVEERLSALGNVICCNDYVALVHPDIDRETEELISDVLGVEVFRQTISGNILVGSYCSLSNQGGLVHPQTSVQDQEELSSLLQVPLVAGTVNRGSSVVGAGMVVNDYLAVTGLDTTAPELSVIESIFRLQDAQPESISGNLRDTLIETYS
UniProt P05737: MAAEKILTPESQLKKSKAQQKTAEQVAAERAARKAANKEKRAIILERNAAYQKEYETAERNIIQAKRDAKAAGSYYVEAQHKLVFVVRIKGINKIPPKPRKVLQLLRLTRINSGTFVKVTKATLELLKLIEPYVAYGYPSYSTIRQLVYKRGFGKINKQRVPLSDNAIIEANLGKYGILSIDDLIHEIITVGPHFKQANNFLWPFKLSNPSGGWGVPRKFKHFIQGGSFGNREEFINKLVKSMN

The molecules below were run against T1, Rpf1 fused to a C-terminal tandem affinity purification (TAP) tag (S. cerevisiae (endogenous in BY4741)) (UniProt P38805) (assay: affinity purification with mass spectrometry; Rpf1-TAP pre-60S particle from yeast lysate on IgG-coated Dynabeads, released with TEV protease; composition told by mass spectrometry, by cross-linking with mass spectrometry and by the proteins modelled in the map; the particle holds rRNA). Conditions: not given.
T1 sequence: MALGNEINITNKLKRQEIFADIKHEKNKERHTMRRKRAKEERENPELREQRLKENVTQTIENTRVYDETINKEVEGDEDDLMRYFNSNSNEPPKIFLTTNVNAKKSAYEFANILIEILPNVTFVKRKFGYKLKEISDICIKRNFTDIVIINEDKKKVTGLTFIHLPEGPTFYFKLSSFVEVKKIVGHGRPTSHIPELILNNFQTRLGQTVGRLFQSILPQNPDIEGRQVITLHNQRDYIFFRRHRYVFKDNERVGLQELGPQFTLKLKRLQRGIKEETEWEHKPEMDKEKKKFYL

| Molecule | binding |
| --- | --- |
| B1 | binds |
| B2 | binds |
| B3 | binds |
| B4 | binds |
| B5 | binds |

Target: T2, Rpf1 fused to a C-terminal tandem affinity purification (TAP) tag (S. cerevisiae (endogenous in BY4741)), P38805
T2 chain: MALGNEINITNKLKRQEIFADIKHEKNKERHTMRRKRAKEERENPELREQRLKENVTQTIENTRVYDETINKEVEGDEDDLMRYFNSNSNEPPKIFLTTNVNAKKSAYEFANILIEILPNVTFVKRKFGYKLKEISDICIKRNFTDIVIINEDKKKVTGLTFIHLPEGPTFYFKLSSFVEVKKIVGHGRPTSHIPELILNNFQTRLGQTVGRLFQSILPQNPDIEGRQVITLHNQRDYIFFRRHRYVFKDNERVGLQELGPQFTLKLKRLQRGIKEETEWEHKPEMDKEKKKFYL
Experiment: as above
Conditions: remark: other sources report otherwise

| Molecule | binding |
| --- | --- |
| B6 | binds |

Target: T1, Rpf1 fused to a C-terminal tandem affinity purification (TAP) tag (S. cerevisiae (endogenous in BY4741))
Experiment: as above
Conditions: not given
Remark: another data set of the same source

| Molecule | binding |
| --- | --- |
| ribosomal protein L4 (S. cerevisiae (endogenous in BY4741)) | binds |
| Has1 (from UniProt Q03532 1-505) (enzyme) | binds |
| ribosomal protein L32 (from UniProt P38061 1-130) | binds |
| Tif6 (from UniProt Q12522 1-245) | binds |
| ribosomal protein L7 (from UniProt P05737) | binds |
